# Measured values published in PMC7819943, “Rice protein-binding microarrays: a tool to detect cis-acting elements near promoter regions in rice”.
# Chains of the proteins cited; added tags and fusions are not shown.
# UniProt Q0JBA9, entry or part of it: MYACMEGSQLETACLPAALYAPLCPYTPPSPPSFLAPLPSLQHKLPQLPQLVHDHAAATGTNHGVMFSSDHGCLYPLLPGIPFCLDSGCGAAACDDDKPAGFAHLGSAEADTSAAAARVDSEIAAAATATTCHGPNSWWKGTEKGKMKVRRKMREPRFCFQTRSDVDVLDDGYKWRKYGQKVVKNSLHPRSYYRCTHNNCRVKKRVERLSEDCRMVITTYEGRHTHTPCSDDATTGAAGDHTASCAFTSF
# Some of the results follow.
# Molecular target: OsWRKY34 (Oryza sativa, UniProt Q0JBA9 1-250)
# Experiment: protein-binding microarray (RPBM); PBS, 2% BSA, 51.3 ng/ul salmon testes DNA, 50 uM zinc acetate, 200 nM TF, 25 C, 1 h; high values mean tight binding
# Conditions: protein: recombinant; tags: N-terminal polyhistidine and DsRed monomer fusion (pET32a); label: CyDye5-dUTP incorporated in the synthesized complementary strand; 3' TTTTT single-stranded linker to array surface; dsDNA, one strand shown
# Method in brief: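 Polyhistidine-tagged DsRed fusions of transcription factors, joined at the N-terminus, were expressed in E. coli BL21-CodonPlus and isolated on Ni–NTA. They were incubated at 200 nM for 1 h at 25 °C on a custom Agilent array, double-stranded and BSA-blocked, in PBS with 2% BSA, salmon testes DNA and 50 µM zinc acetate. The binding signal is per-feature fluorescence intensity (arbitrary units) read on an Axon 4000B scanner after washing.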
row,Sequence,binding signal
1,CTCTACTCTTGATTTCTCACTCTTCTATAGATCTTTAATTCGGAGTCACCTAGTGCAG,10800 fluorescence intensity (a.u.)
2,GAAATTCACCACAAATCACCAATCTGCCACGGCCCGCGCGCGGAGTCACCTAGTGCAG,10500 fluorescence intensity (a.u.)
3,GTAGCAGACCAGCACACCCACATATATACACACGCACACACGGAGTCACCTAGTGCAG,8630 fluorescence intensity (a.u.)
4,AGCTGAGGGGCGGCGGCGGCTGGCAAGGGGCGGCGGCGGCCGGAGTCACCTAGTGCAG,10900 fluorescence intensity (a.u.)
5,GTTCGTTGTTCTATCGCTCACCCGCGCTTCAGGTCATTTACGGAGTCACCTAGTGCAG,13200 fluorescence intensity (a.u.)
6,TCCCCACCTATCGTTGCTTCTCACAGCTAGATCCGGCAAACGGAGTCACCTAGTGCAG,8840 fluorescence intensity (a.u.)
7,TGGATTCTTAACTCAAACCTGCCGCTGGTTTCCGCGCGCGCGGAGTCACCTAGTGCAG,8710 fluorescence intensity (a.u.)
8,GTTTTTTTTTAAGCACGTTTTAAACACGAAAGTCTTTCTTCGGAGTCACCTAGTGCAG,8330 fluorescence intensity (a.u.)
9,TGTCTCTTTCGTTGATAGTCCTGATAGTCCTGGATACTCGCGGAGTCACCTAGTGCAG,8510 fluorescence intensity (a.u.)
10,TCGCTGCCCGCTGTCCCGTCCTCGAGTCGCCACCTGCCACCGGAGTCACCTAGTGCAG,9950 fluorescence intensity (a.u.)
11,AATTGGAGAAGTTGACTTTTCTGACAGCCCTTGTGTGTACCGGAGTCACCTAGTGCAG,10200 fluorescence intensity (a.u.)
12,ATCATTCCTAACTGCCTGGTCGTACTTCTCTGTATTTTGTCGGAGTCACCTAGTGCAG,17500 fluorescence intensity (a.u.)
13,TTCCACATACATCCATCCTGATCCTTCCTTGCCGCACACACGGAGTCACCTAGTGCAG,10700 fluorescence intensity (a.u.)
14,AGAGCAGCAGCCCATCATTTGTTCGATCCAATTCCCATCCCGGAGTCACCTAGTGCAG,9130 fluorescence intensity (a.u.)
15,CGCCTTGAAGCTCCCGTTGCTGCTGGTACATATATACACACGGAGTCACCTAGTGCAG,8630 fluorescence intensity (a.u.)
16,GTTAATGCTAGTATACATCTGTAATGTCATGATTTATTTACGGAGTCACCTAGTGCAG,8610 fluorescence intensity (a.u.)
17,ACTGGTCGAACCTTGGCGGGGAGGGGCCGGCCGGCCTCATCGGAGTCACCTAGTGCAG,8640 fluorescence intensity (a.u.)
18,CACCACATCATCACCACCAAGCCATCGTCGCTGCGCATATCGGAGTCACCTAGTGCAG,10100 fluorescence intensity (a.u.)
19,GAATTCTATGCCCCTGGTTGCATCCTTGCACCGTCTGCAGCGGAGTCACCTAGTGCAG,9150 fluorescence intensity (a.u.)
20,AGCATTCTAGGTCCGGCAATTTTTTTTCCCTCTCGGTTCCCGGAGTCACCTAGTGCAG,8860 fluorescence intensity (a.u.)
21,ATCATCTCATGCCTCTACTGCTGTGGGAGGGACAGTGAACCGGAGTCACCTAGTGCAG,9690 fluorescence intensity (a.u.)

row,Sequence,binding signal
1,TCCATGATTCCCTTCTCGAATCTTCTCACTTTCTTCTGAACGGAGTCACCTAGTGCAG,8830 fluorescence intensity (a.u.)
2,AAGAGGGGATCGATCGCTTTCTTGCTTTCATTTTTTTCCTCGGAGTCACCTAGTGCAG,8800 fluorescence intensity (a.u.)
3,CCGCCGCCGTCATACTCATATCATATCTTCTTCTTCTTCTCGGAGTCACCTAGTGCAG,11900 fluorescence intensity (a.u.)
4,ATGATGATGTGGCATGGTTGCATGTTGAGCTTTAGACTTACGGAGTCACCTAGTGCAG,9990 fluorescence intensity (a.u.)
5,CGAGAGTGGACTAGATATGGCTTGCACCGGTTGGATTATACGGAGTCACCTAGTGCAG,8880 fluorescence intensity (a.u.)
6,TCATGAGTCATCAGTTCGTCGCTTGACTTGTGAGTACTCACGGAGTCACCTAGTGCAG,10700 fluorescence intensity (a.u.)
7,CTTTTTATGAAAATCTCCGACCGTTTTCATTCCATATACACGGAGTCACCTAGTGCAG,8790 fluorescence intensity (a.u.)
8,CTCGCGCGTGCCCGCCTCTGCTGTTCTTTCTCTCGCCCTCCGGAGTCACCTAGTGCAG,11400 fluorescence intensity (a.u.)
9,TCCAATCATTTTCATTCACATTATCACATTATTTTTCATTCGGAGTCACCTAGTGCAG,8070 fluorescence intensity (a.u.)
10,CGTCACTTGTAGTTTTGCAAGAAAGGCCATATGTTTTATTCGGAGTCACCTAGTGCAG,8150 fluorescence intensity (a.u.)
11,CTTCATTTTTCATTTGTTTTTCATTCCTGTAAGATAAAAGCGGAGTCACCTAGTGCAG,8200 fluorescence intensity (a.u.)
12,TTACTAATTTTAATCTTTGCCTAATTTGCTACCCTGACTACGGAGTCACCTAGTGCAG,8190 fluorescence intensity (a.u.)
13,GAGGGAGGGGAGGGATATTTTTATGTAATTGTCACATCATCGGAGTCACCTAGTGCAG,13300 fluorescence intensity (a.u.)
14,AGGTCAAACCCTGAGTTTCCGTGTTCAACTTTGACGGTCCCGGAGTCACCTAGTGCAG,9440 fluorescence intensity (a.u.)
15,GCTGTGGATGGACTCAATGTTTTTGTTCATTGTTTCTCGGCGGAGTCACCTAGTGCAG,8110 fluorescence intensity (a.u.)
16,TCCTCGGCCAATTCCCGACTTTTGCTTTTATTTTCTTCATCGGAGTCACCTAGTGCAG,13000 fluorescence intensity (a.u.)
17,ACCGAAAGTGAGACGAGCTGCCCAGTTTTCCACACTCCATCGGAGTCACCTAGTGCAG,8730 fluorescence intensity (a.u.)
18,AACCTTTCACCCATCACATCAAATGTTTGAACACATGCATCGGAGTCACCTAGTGCAG,12100 fluorescence intensity (a.u.)
19,TCATGTTGAATCTTCGCGTCTAGAAGCATCCGGCTCCTAACGGAGTCACCTAGTGCAG,8150 fluorescence intensity (a.u.)
20,CCTGCACGCGTCGTCGCCCACATTTTCCCACTTTCCACGGCGGAGTCACCTAGTGCAG,8100 fluorescence intensity (a.u.)
21,AGTAAGTTTTCGCGTCCAACTTTGATCGTCCGTTTTATTTCGGAGTCACCTAGTGCAG,10500 fluorescence intensity (a.u.)

# Part of the list above, with tabs:
row	Sequence	binding signal
15	GCTGTGGATGGACTCAATGTTTTTGTTCATTGTTTCTCGGCGGAGTCACCTAGTGCAG	8110 fluorescence intensity (a.u.)
16	TCCTCGGCCAATTCCCGACTTTTGCTTTTATTTTCTTCATCGGAGTCACCTAGTGCAG	13000 fluorescence intensity (a.u.)
